Laboratory results reported in US12516365B2, “Biocide compositions compatible with enzyme biosensors and methods of use thereof” (priority 2019, dated 2026).
Entries after “also recorded” stand apart in the source; their conditions may differ. At least one compound was matched to its structure with a doubt left.

How the values were obtained:
[1] = system: ChemSTAT creatinine sensor (creatininase, creatinase and sarcosine oxidase); test: Creatinine and creatine sensor slopes over time with biocide in Process Control Solution (PCS); format: biochemical
Procedure: FIGS. 2A-2B show plots of creatinine and creatine slopes over time in the presence of either MIT or polymyxin B, respectively. […] Stable slopes were first established for more than one week before 300 mg/L MIT (methyl isothiazolinone) or 20 mg/L polymyxin B was added to the Process Control Solution (PCS) B (e.g., PCS-B).
The present disclosure discovered that Polymyxin B and Polymyxin E (aka, Colistin Sulfate) were compatible with a ChemSTAT creatinine sensor that utilized two hydrolase class enzymes (e.g., creatininase and creatinase) and sarcosine oxidase to measure creatinine. When included in Process Control Solutions (PCS) at a concentration sufficient to kill microbes (e.g., bacteria, in particular gram negative rods including various strains of Pseudomonas), the slope of the sensor remained high enough over 21 days to continually allow accurate measurement of creatinine in human blood and aqueous control solutions even at the upper end of the linear range where reduced enzyme activity could result in low recovery of substrate.
MIT is the most common biocide used in the blood gas industry for microbial contamination, and is known to be compatible with oxidase class enzymes such as glucose oxidase and lactate oxidase. […]

[2] = system: Creatinine Sensor; test: Screen of biocides/antibiotics for compatibility with the Creatinine Sensor (Creatinine Sensor Slope loss); format: biochemical; set-up: key: “Fail” indicates the compound inhibited Creatinine Sensor Slope; “Pass” indicates there was no significant effect on Creatinine Sensor Slope
Description: In one embodiment, a biocide candidate may be injected into, for example, one PCS-B bag after about one week of cartridge use life, and then any changes in sensor slopes over the next week or two, especially any increase in the rate of slope decrease, may be observed. During this time, aqueous solutions with high substrate concentrations may be tested to ensure that enzymes are still able to convert all substrate to products in the allotted time (e.g., about one minute).
In one embodiment, multiple cartridges assembled with, for example, PCS-B bags containing a candidate biocide may be tested for a prolonged period of time (e.g., 20-30 days) that corresponds to the useful cartridge lifespan (which may vary depending upon the cartridge type tested). In this case the cartridge starts the hydration process, which generally lasts about 50 minutes, with the biocide already in the solution bag (e.g., PCS-B). […] Over the course of 3 weeks, in addition to running aqueous controls that have established acceptance ranges, whole human blood may also be tested in order to simulate normal customer use.
A variety of candidate molecules were screened as described above to determine whether they were compatible with the Creatinine Sensor, i.e. whether there was a significant effect on Creatinine Sensor Slope.

Cn1sccc1=O [MIT, methyl isothiazolinone]
Inhibition/inactivation of creatininase, creatinase and sarcosine oxidase [1]: rapid inactivation; also recorded: irreversibly inhibited | Creatinine and creatine slopes over time after addition to PCS ([1]; 300 mg/L added to PCS-B after stable slopes for more than one week): rapid decay in creatinine/creatine slopes that does not recover over time; also recorded: drop to zero in less than one day | Pass/Fail (Creatinine Sensor Slope Loss) [2]: Fail
